Results deposited as PubChem BioAssay AID686938 (Drosophila RNAi Screening Center, 2013)
In all, the deposit lists about 23,000 reagents; shown is an unselected part of those that have a named target and a result. Of all reagents, 75 (0.33%) got an active call. 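Raw plate signals without normalisation; calls rest on plate z-scores that were not deposited; ratio present for only 364 wells.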 Entries without a mark were called inactive. A plus sign joins genes that one reagent is predicted to hit. No sequences are given here. The record does not give: the dose of the treatment.

- Assay: 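Knock-downs reducing store-operated calcium influx in Drosophila cells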 (primary screen)
- Cells: Drosophila S2R+ cells
- Reagents: long dsRNA against Drosophila genes, about 0.25 µg dsRNA per well, roughly 10,000 cells
- Timing: 5 days of knock-down before the calcium assay
- Treatment: thapsigargin (SERCA pump blocker) to empty calcium stores; entry signal taken 4 min after adding it
- Measurement: 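Duplicate raw fluo-4 intensities per well from a plate reader, at rest and four minutes after thapsigargin emptied calcium stores; entry-to-rest ratio filled for only some wells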
- Scale: calcium entry signal: higher = stronger calcium signal after store depletion; resting calcium signal: higher = higher resting calcium signal
- Units: calcium entry signal in fluorescence units; resting calcium signal in fluorescence units
- Active means: 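Called when the plate z-score of the entry-to-rest ratio, mean of duplicates, falls below −3; wells with low overall dye signal (Fmax z below −2) or more than five off-targets excluded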
- Meaning of the calls: active = strongly reduced calcium entry; inactive = no strong reduction

After knock-down of CG2217 + CG42740 [DRSC14141] the results were calcium entry signal, replicate 1 = 3.62e7; calcium entry signal, replicate 2 = 5.22e7; resting calcium signal, replicate 1 = 1.79e7; resting calcium signal, replicate 2 = 2.26e7.
stw (GeneID 35494) [DRSC04842] scored calcium entry signal, replicate 1 = 3.59e7; calcium entry signal, replicate 2 = 4.33e7; resting calcium signal, replicate 1 = 1.88e7; resting calcium signal, replicate 2 = 1.90e7.
Silencing of stw (GeneID 35494) [DRSC04843] gave: calcium entry signal, replicate 1 = 3.47e7; calcium entry signal, replicate 2 = 3.99e7; resting calcium signal, replicate 1 = 1.86e7; resting calcium signal, replicate 2 = 1.84e7.
For stw (GeneID 35494) [DRSC22527], the entry reads calcium entry signal, replicate 1 = 3.20e7; calcium entry signal, replicate 2 = 2.89e7; resting calcium signal, replicate 1 = 1.64e7; resting calcium signal, replicate 2 = 1.22e7.
Knock-down of CG5623 (GeneID 41904) [DRSC15848] resulted in: calcium entry signal, replicate 1 = 2.43e7; calcium entry signal, replicate 2 = 3.62e7; resting calcium signal, replicate 1 = 1.20e7; resting calcium signal, replicate 2 = 4.47e7.
sas (GeneID 40861) [DRSC12631] gave calcium entry signal, replicate 1 = 4.39e7; calcium entry signal, replicate 2 = 3.78e7; resting calcium signal, replicate 1 = 2.12e7; resting calcium signal, replicate 2 = 1.67e7.
spidey (GeneID 31703) [DRSC17932] scored calcium entry signal, replicate 1 = 2.05e7; calcium entry signal, replicate 2 = 3.62e7; resting calcium signal, replicate 1 = 1.04e7; resting calcium signal, replicate 2 = 1.61e7.
Against CG42709 (GeneID 39453) [DRSC10277] the deposit lists calcium entry signal, replicate 1 = 4.95e7; calcium entry signal, replicate 2 = 3.85e7; resting calcium signal, replicate 1 = 3.31e7; resting calcium signal, replicate 2 = 1.68e7.
CG9168 (GeneID 38163) [DRSC08633] showed calcium entry signal, replicate 1 = 3.38e7; calcium entry signal, replicate 2 = 4.12e7; resting calcium signal, replicate 1 = 1.69e7; resting calcium signal, replicate 2 = 1.84e7.
Silencing of CG9084 (GeneID 36172) [DRSC07335] gave: calcium entry signal, replicate 1 = 1.64e7; calcium entry signal, replicate 2 = 2.85e7; resting calcium signal, replicate 1 = 1.00e7; resting calcium signal, replicate 2 = 1.26e7.
Silencing of Cog1 (GeneID 41479) [DRSC15661] came out at: calcium entry signal, replicate 1 = 4.09e7; calcium entry signal, replicate 2 = 4.95e7; resting calcium signal, replicate 1 = 1.83e7; resting calcium signal, replicate 2 = 2.08e7.
Knock-down of djl (GeneID 40839) [DRSC12578] resulted in: calcium entry signal, replicate 1 = 4.33e7; calcium entry signal, replicate 2 = 4.15e7; resting calcium signal, replicate 1 = 2.31e7; resting calcium signal, replicate 2 = 1.87e7.
After knock-down of CG17786 (GeneID 42879) [DRSC15270], the screen gave calcium entry signal, replicate 1 = 4.13e7; calcium entry signal, replicate 2 = 4.91e7; resting calcium signal, replicate 1 = 2.21e7; resting calcium signal, replicate 2 = 1.84e7.
For CG16896 (GeneID 37977) [DRSC04284], the entry reads calcium entry signal, replicate 1 = 4.48e7; resting calcium signal, replicate 1 = 2.33e7.
Silencing of jet (GeneID 33705) [DRSC03116] came out at: calcium entry signal, replicate 1 = 3.86e7; resting calcium signal, replicate 1 = 1.86e7.
CG14668 (GeneID 40646) [DRSC12254] gave calcium entry signal, replicate 1 = 2.95e7; calcium entry signal, replicate 2 = 2.50e7; resting calcium signal, replicate 1 = 1.51e7; resting calcium signal, replicate 2 = 1.35e7.
After knock-down of Vps13D (GeneID 39448) [DRSC09818], the record shows calcium entry signal, replicate 1 = 2.08e7; calcium entry signal, replicate 2 = 3.28e7; resting calcium signal, replicate 1 = 1.14e7; resting calcium signal, replicate 2 = 1.46e7.
Against Vps13D (GeneID 39448) [DRSC09819] the deposit lists calcium entry signal, replicate 1 = 2.72e7; calcium entry signal, replicate 2 = 3.22e7; resting calcium signal, replicate 1 = 1.40e7; resting calcium signal, replicate 2 = 1.60e7.
GstD1 (GeneID 41503) [DRSC16683] scored calcium entry signal, replicate 1 = 3.80e7; calcium entry signal, replicate 2 = 3.32e7; resting calcium signal, replicate 1 = 1.90e7; resting calcium signal, replicate 2 = 1.76e7.
With knock-down of CG2574 (GeneID 32190) [DRSC19862] the results were calcium entry signal, replicate 1 = 5.82e7; calcium entry signal, replicate 2 = 6.19e7; resting calcium signal, replicate 1 = 2.78e7; resting calcium signal, replicate 2 = 2.57e7.
Against CG9691 (GeneID 31923) [DRSC18441], the values are calcium entry signal, replicate 1 = 3.87e7; calcium entry signal, replicate 2 = 6.35e7; resting calcium signal, replicate 1 = 1.93e7; resting calcium signal, replicate 2 = 2.84e7.
CG15753 (retired record) (GeneID 32306) [DRSC18982] scored calcium entry signal, replicate 1 = 2.73e7; calcium entry signal, replicate 2 = 2.83e7; resting calcium signal, replicate 1 = 1.57e7; resting calcium signal, replicate 2 = 1.36e7.
After knock-down of CG15753 (retired record) (GeneID 32306) [DRSC19503] the results were calcium entry signal, replicate 1 = 4.02e7; calcium entry signal, replicate 2 = 3.91e7; resting calcium signal, replicate 1 = 1.78e7; resting calcium signal, replicate 2 = 1.75e7.
Silencing of CG15753 (retired record) (GeneID 32306) [DRSC19716] gave: calcium entry signal, replicate 1 = 3.77e7; calcium entry signal, replicate 2 = 5.23e7; resting calcium signal, replicate 1 = 1.91e7; resting calcium signal, replicate 2 = 2.41e7.
With knock-down of CG15753 (retired record) (GeneID 32306) [DRSC19717] the results were calcium entry signal, replicate 1 = 5.05e7; calcium entry signal, replicate 2 = 4.47e7; resting calcium signal, replicate 1 = 2.45e7; resting calcium signal, replicate 2 = 2.09e7.
With knock-down of CG15753 (retired record) (GeneID 32306) [DRSC19718], the record shows calcium entry signal, replicate 1 = 2.81e7; calcium entry signal, replicate 2 = 3.55e7; resting calcium signal, replicate 1 = 1.89e7; resting calcium signal, replicate 2 = 2.20e7.
Against CG15753 (retired record) (GeneID 32306) [DRSC22985], the entry reads calcium entry signal, replicate 1 = 5.08e7; calcium entry signal, replicate 2 = 2.62e7; resting calcium signal, replicate 1 = 2.57e7; resting calcium signal, replicate 2 = 1.19e7.
